The test has as its target SENP3 (Sentrin-specific protease 3) (mouse (endogenous in primary Sertoli cells)) (UniProt Q9EP97). The test is described as follows: co-IP; endogenous proteins in primary mouse Sertoli cell lysate (10 mM Tris, 150 mM NaCl, 1% NP-40, 10% glycerol, pH 7.4); immunoprecipitation with anti-SENP3 antibody, rabbit IgG as negative control, 4°C overnight; protein A/G-Sepharose beads; immunoblot. A general note: In western blotting, separated proteins are transferred to a membrane and probed.

Sequences of proteins named here, by UniProt entry; tags and fusion partners are left off.
UniProt Q9EP97: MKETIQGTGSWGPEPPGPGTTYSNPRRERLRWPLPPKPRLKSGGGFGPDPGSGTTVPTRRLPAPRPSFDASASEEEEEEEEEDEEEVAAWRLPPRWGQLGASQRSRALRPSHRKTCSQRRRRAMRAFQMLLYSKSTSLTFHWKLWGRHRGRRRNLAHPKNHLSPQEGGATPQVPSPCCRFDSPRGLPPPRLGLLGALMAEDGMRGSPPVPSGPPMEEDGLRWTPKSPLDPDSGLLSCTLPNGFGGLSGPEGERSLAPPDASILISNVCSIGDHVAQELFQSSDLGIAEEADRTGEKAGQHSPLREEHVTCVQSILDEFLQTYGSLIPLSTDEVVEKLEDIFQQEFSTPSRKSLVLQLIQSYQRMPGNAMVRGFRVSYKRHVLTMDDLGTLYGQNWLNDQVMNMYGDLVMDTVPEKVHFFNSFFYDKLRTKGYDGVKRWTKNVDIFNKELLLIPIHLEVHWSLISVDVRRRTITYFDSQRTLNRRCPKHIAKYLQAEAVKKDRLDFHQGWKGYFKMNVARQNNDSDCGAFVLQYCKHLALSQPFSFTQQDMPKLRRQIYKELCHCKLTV
UniProt P42227: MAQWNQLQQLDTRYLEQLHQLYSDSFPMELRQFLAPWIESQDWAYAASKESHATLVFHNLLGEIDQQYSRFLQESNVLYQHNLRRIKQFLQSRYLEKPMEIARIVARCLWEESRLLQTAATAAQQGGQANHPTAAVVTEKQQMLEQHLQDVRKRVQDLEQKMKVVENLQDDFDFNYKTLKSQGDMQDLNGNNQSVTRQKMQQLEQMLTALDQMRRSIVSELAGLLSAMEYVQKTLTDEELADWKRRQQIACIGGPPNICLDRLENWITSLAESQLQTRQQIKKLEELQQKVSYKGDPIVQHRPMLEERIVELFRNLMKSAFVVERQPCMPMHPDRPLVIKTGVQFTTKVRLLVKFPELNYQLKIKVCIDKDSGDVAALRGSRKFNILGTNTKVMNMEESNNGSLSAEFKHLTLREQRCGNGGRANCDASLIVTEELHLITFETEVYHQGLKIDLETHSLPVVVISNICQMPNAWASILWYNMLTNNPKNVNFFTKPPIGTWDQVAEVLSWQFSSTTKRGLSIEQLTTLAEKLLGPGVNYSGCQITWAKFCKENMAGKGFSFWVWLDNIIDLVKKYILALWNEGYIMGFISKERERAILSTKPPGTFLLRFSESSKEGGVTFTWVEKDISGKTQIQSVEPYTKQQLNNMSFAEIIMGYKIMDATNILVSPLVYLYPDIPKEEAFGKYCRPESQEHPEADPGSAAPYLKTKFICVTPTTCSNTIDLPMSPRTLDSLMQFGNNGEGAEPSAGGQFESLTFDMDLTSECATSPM

This passage reports binding results from publication PMC5601664.

No constants are given. Whether binding was seen depends on the method and setting. Binding seen in cells or lysates may run through a third protein. Some results given as binding are weak or reduced against the parent protein; the word gives no strength.

In the case of STAT3 (from UniProt P42227 1-770), the binding entry was “binds”.
